Publication doi:10.1101/2021.06.09.447716
Results are given in words; binding and its absence hold for the method and conditions named. Binding seen in cells or lysates may run through a third protein. Binding calls can cover weak binding; strength is not graded here.

Protein sequences, listed by entry. Tags and fused reporters are not part of them. Residues count along the entry.
UniProt P56817, residues 46-501: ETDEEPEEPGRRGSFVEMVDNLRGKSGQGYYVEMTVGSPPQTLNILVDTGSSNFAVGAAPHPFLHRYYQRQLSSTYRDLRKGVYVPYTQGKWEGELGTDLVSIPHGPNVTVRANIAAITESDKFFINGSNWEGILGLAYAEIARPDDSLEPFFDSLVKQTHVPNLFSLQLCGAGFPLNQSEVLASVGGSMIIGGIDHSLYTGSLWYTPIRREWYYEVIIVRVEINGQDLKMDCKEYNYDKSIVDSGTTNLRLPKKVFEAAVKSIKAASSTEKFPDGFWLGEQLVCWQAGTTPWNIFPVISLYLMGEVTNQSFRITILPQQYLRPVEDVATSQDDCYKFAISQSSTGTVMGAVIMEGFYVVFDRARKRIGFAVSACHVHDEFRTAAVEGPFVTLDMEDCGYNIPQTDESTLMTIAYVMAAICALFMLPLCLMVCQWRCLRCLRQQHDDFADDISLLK

Target: BACE1-GFP (UniProt P56817)
Experiment: co-IP

Bin1-PL (neuronal Bin1-MYC with the LOAD mutation P318L, rs754834233) (from UniProt O08539-1)
binding: binds
